From PubChem BioAssay AID445 (National Center for Advancing Translational Sciences (NCATS), 2006) come the findings set out here.

Some of the results follow. Shown are side measurements of this screen, not its main read-out; they come without a call. Compounds called inactive in the main read-out are mostly missing here. Potencies come from curve fits of mixed quality, noted in brackets.

A short description of the assay: IkB Signaling. As to conditions: ABC-DLBCL IkBa-CBG/CBR dual luciferase ratio (green luciferase fused to IkBa over red control in OCI-Ly3 lymphoma cells), 4 h; measured here: control luc red channel unless noted. A digest of the protocol:
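In this assay, an IκBα–CBG68 fusion accumulates when IKK-driven degradation is blocked; native CBR normalizes for cell number. OCI-Ly3 cells were treated 4 h with compound and doxycycline, then green and red light read after Chroma-Glo addition.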
Take `Cn1c(=O)c2c(c3ccccc31)OC(=O)CC2c1ccccc1` (stereo unspecified): the half-maximal activity concentration (AC50) (in general, the midpoint of the concentration-response curve, whichever way the signal moves) is 2 µM [rising, full curve] [measured here: IkB-luc green channel].

As to `CC(C)c1ccc(NC(=O)CSC2=Nc3ccccc3C3=NC(CC(=O)NCc4ccco4)C(=O)N23)cc1` (stereo unspecified), the AC50 is 15.8 µM [falling, partial curve].

Consider `c1ccc(-c2noc(-c3ccc4ccccc4c3)n2)cc1`, for which the AC50 is 0.01 µM [falling, full curve]. For `Nc1c(C(=O)NCc2ccco2)nnn1-c1ccccc1` the value was 15.8 µM [falling, single point].

Consider `Cc1ccc(CCNC(=O)c2ccc(CNS(=O)(=O)c3ccc(F)cc3)cc2)cc1`, for which the AC50 was 12.6 µM [falling, single point]. For the compound `CCOC(=O)C1=C(CS(=O)(=O)c2ccc(F)c(C)c2)NC(=O)NC1c1ccc(F)c(F)c1` (stereo unspecified), the AC50 was 12.6 µM [falling, partial curve]. For the compound `CC(=O)N1CCc2c(sc(NC(=O)CSc3ccc(C)cc3)c2-c2nc3ccccc3s2)C1`, the concentration at half-maximal activity (AC50) is 6.31 µM [rising, single point]. For `Cc1cccc(N2CCN(C(=O)c3cccc(-n4c(C)nc5cccnc54)c3)CC2C)c1` (stereo unspecified) the value was 15.8 µM [falling, partial curve]. As for `COC(=O)C1=C(C)NC2=C(C(=O)c3ccccc32)C1c1ccc(-c2ccc(C(=O)O)cc2)o1` (stereo unspecified), the AC50 is 3.16 µM [falling, full curve]. `Cc1cccc(N2C(=O)SC(N(CC(=O)O)c3cccc(C)c3)C2=O)c1` (stereo unspecified): the half-maximal activity concentration (AC50) is 1.26 µM [falling, full curve].

Consider `COc1ccc(NS(=O)(=O)c2cc3c4c(c2)CC(=O)N4CCC3)cc1Cl`, for which the AC50 was 3.16 µM [rising, partial curve]. Next, `CCn1c(CN2CCC(C)CC2)nc2cc(NC(=O)c3cccc([N+](=O)[O-])c3)ccc21`: 0.0398 µM [falling, full curve, poor fit]. Take `Cc1ccc(NC(=O)N2CCc3c([nH]c4ccccc34)C2c2ccccc2F)c(Cl)c1` (stereo unspecified): the half-maximal activity concentration (AC50) was 3.98 µM [falling, full curve, poor fit]. On to `COCCN1C(=O)c2oc3ccc(C)cc3c(=O)c2C1c1ccc(C(=O)OC)cc1` (stereo unspecified), for which the half-maximal activity concentration (AC50) is 6.31 µM [rising, single point]. For the compound `Cc1ccc(C)c(NS(=O)(=O)c2ccc3c(c2)CCCN3C(=O)C2CCC2)c1`, the AC50 was 25.1 µM [falling, single point]. For `Cc1nc2c(cc(Oc3ccc(S(=O)(=O)N4CCOCC4)cn3)c3ccsc32)s1` the value was 31.6 µM [falling, single point]; for `Cc1nc2sccn2c(=O)c1S(=O)(=O)Nc1cccc(Cl)c1C`, 39.8 µM [falling, single point]. For `Cc1ccc(OCC(=O)Nc2ccc(C(=O)OCc3cc(=O)n4ccsc4n3)cc2)cc1C` the value was 12.6 µM [falling, partial curve]; for `Cc1ccc(C)n1-c1ccc(-n2cnnn2)cc1`, 25.1 µM [rising, single point] [measured here: IkB-luc green channel]. In the case of `O=C(NCc1ccco1)c1cc(-c2cccnc2)nc2ccc(Cl)cc12`, the concentration at half-maximal activity (AC50) was 12.6 µM [falling, partial curve]. In the case of `COc1cc([N+](=O)[O-])ccc1NC(=O)N1CCC2(CC1)Nc1cc(F)ccc1-n1cccc12`, the AC50 was 20 µM [falling, partial curve, poor fit]. Next, `O=c1cc(-c2ccccc2)[nH]c2nc(Cl)ccc12`: 3.16 µM [rising, full curve] [measured here: IkB-luc green channel]. For `Cc1ccc(C2C(=O)N(C3CCCCCC3)CC(=O)N2CCC2=CCCCC2)cc1` (stereo unspecified) the value was 12.6 µM [falling, partial curve]; for `Cc1ccccc1Nc1nnc(-c2ccc(C)c(S(=O)(=O)NCC3CCCO3)c2)c2ccccc12` (stereo unspecified), 31.6 µM [falling, single point]. Next, `CC(C)(C)OC(=O)N1CCC(c2c(C(=O)N3CCN(c4ncccn4)CC3)cnn2-c2ccc(F)cc2)CC1`: 25.1 µM [falling, partial curve]; `c1cc2c3c(cccc3c1)NC1(CCCCCC1)N2`: 794 nM [rising, full curve] [measured here: IkB-luc green channel]. In the case of `Fc1cccc2sc(Nc3nnc(-c4ccccc4)o3)nc12`, the AC50 is 5.01 µM [falling, full curve]. For `COc1ccc(Oc2ncnc3c2oc2ccccc23)cc1` the value was 3.98 µM [rising, full curve, poor fit]. In the case of `CCOC(=O)c1ccc(NC(=O)C2CCCN(c3cnccn3)C2)cc1` (stereo unspecified), the AC50 is 39.8 µM [falling, single point]. Next, `CCOC(=O)C1=C(CNCc2ccc(Cl)cc2)NC(=O)NC1c1ccccc1` (stereo unspecified): 20 µM [falling, partial curve]; `CC(=O)N1c2ccccc2CC1C(=O)N1CCN(c2ccccc2F)CC1` (stereo unspecified): 25.1 µM [falling, partial curve]; `COc1cc(NC(=O)Cn2cc(S(=O)(=O)N3CCC(C)CC3)c3ccccc3c2=O)cc(OC)c1OC`: 31.6 µM [falling, partial curve].

On to `COc1cccc(/C=C(\C#N)c2nc3ccccc3c(=O)[nH]2)c1OC`, for which the AC50 is 0.631 µM [rising, partial curve]. Consider `CCOc1ccc(Nc2ncnc3onc(-c4ccc(Cl)cc4)c23)cc1`, for which the AC50 was 20 µM [falling, single point].

Turning to `COC(=O)c1ccc(OCC2c3cc(OC)c(OC)cc3CCN2C(=O)Cc2ccc(OC)c(OC)c2)cc1` (stereo unspecified), the half-maximal activity concentration (AC50) is 2 µM [rising, partial curve].

On to `Cc1cn2c(=O)c(S(=O)(=O)NCCc3ccc(Cl)cc3)c(C)nc2s1`, for which the AC50 is 25.1 µM [falling, single point].

For `COc1cc(C(=O)Nc2nnc(CC(C)(C)C)s2)cc(OC)c1OC`, the half-maximal activity concentration (AC50) is 10 µM [falling, partial curve, poor fit]. Next, `CCc1ccc2occ(CC(=O)NCc3ccccc3)c2c1`: 20 µM [falling, single point]; `O=C(Nc1scc(-c2ccc(F)cc2)c1C(=O)O)c1ccco1`: 25.1 µM [falling, single point]; `COc1ccc(-c2nc3sc(CCNC(=O)c4ccc(C(C)(C)C)cc4)c(C)n3n2)cc1`: 12.6 µM [falling, partial curve]. For `CCOc1ccc(C(=O)Nc2ccc(Cl)c(-c3nc4cc(C)cc(C)c4o3)c2)cc1` the value was 15.8 µM [falling, partial curve].

Regarding `CCOC(=O)C1CCC(CN(Cc2ccc(OC)cc2)S(=O)(=O)c2ccc(F)c(C(=O)Nc3cc(Cl)ccc3OC)c2)CC1` (stereo unspecified), the AC50 was 0.00631 µM [falling, full curve, poor fit]. `O=C(Cc1cccs1)N1CCN(c2nc(-c3ccc(Cl)cc3)cs2)CC1`: the concentration at half-maximal activity (AC50) was 39.8 µM [falling, single point].

Regarding `COc1ccc(NC(=O)Cc2ccc(NC(=O)N3CCCCc4ccccc43)cc2)c(OC)c1`, the AC50 was 31.6 µM [falling, single point]. Next, `CC(C)c1ccc(NC(=O)c2cc(S(=O)(=O)NCCC3=CCCCC3)ccc2F)cc1`: 15.8 µM [falling, partial curve]. For `Cc1cn2c(=O)cc(COC(=O)c3ccc(NC(=O)c4ccc(C(C)(C)C)cc4)cc3)nc2s1` the value was 0.0631 µM [rising, full curve, poor fit]; for `CCOC(=O)c1ccc(NC(=O)C(CC)Sc2nncn3c2cc2oc(C)cc23)cc1` (stereo unspecified), 12.6 µM [falling, partial curve].

On to `CC1(C)Cc2c(sc3nc(-c4cc5ccccc5o4)n(N)c(=O)c23)CO1`, for which the AC50 is 20 µM [falling, partial curve]. In the case of `COC(=O)c1c(-c2cccnc2)csc1NC(=O)c1cc(C)on1`, the AC50 is 25.1 µM [falling, partial curve]. For `CCCCNc1nc2c(-c3cccc(Br)c3)nnn2c2ccccc12`, the concentration at half-maximal activity (AC50) was 1.58 µM [falling, full curve]. Consider `CCOc1c(C(N)=O)c(-c2ccccc2)c2c(=O)[nH]c3ccccc3n12`, for which the AC50 was 0.126 µM [falling, full curve, poor fit]. Next, `COc1ccc(OCCCn2c(C)nc3cc(C)c(C)cc32)cc1`: 25.1 µM [falling, partial curve]; `CCC1=C(c2ccc(C)cc2)S(=O)(=O)N=C1N1CCC(C(=O)NCCc2cccc(OC)c2)CC1`: 31.6 µM [falling, single point]. For `CCOc1ccccc1OCCCCCc1c(C)n[nH]c1C` the value was 15.8 µM [falling, partial curve]; for `COC(=O)C1CCN(c2csc3ccc(C)cc3c2=O)CC1`, 15.8 µM [falling, partial curve]; for `CCN(CCCNC(=O)c1ccc(Sc2ccc(Cl)cc2)c(NC(C)=O)c1)c1cccc(C)c1`, 25.1 µM [falling, partial curve]. Turning to `CCc1nn(CCCC(=O)NCc2ccc(OC)c(OC)c2)c(=O)c2cc3occc3n12`, the concentration at half-maximal activity (AC50) was 0.158 µM [rising, partial curve]. `Cc1ccc(C)c(NC(=O)CN(Cc2ccccc2)S(=O)(=O)c2ccc3nc(C)sc3c2)c1`: the AC50 is 25.1 µM [falling, single point]. With `CCN(CC)c1ccc(-c2nc(-c3ccccn3)no2)cc1[N+](=O)[O-]`, the concentration at half-maximal activity (AC50) was 1.58 µM [rising, full curve, poor fit]. Turning to `COc1cc(C2Oc3nc(SC)nnc3-c3ccccc3N2C(C)=O)cc(Cl)c1OC` (stereo unspecified), the half-maximal activity concentration (AC50) was 20 µM [falling, partial curve].

Take `Cc1ccc(CNC(=O)CN2C(=O)COc3ccc(S(=O)(=O)N4CCC(C)CC4)cc32)cc1`: the AC50 is 25.1 µM [falling, single point].
